Measured data: PubChem BioAssay AID1224828 (NIAID, 2016)
Purpose: 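Regulators linking TLR4 signalling to p65 nuclear translocation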 (primary screen). Cells: mouse RAW264.7 G9 macrophage reporter cells (GFP-p65, Tnf promoter-mCherry). Reagents: siRNA pool against mouse genes, 100 nM. Timing: 2 days siRNA transfection, then 40 min LPS before fixation. Challenge: LPS (Salmonella minnesota R595) at 10 ng/ml. Read-out: 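Microscopy ratio of nuclear to perinuclear-ring GFP-p65 signal, scaled to the plate median; gene score is the average of two replicate robust z-scores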. Direction: p65 translocation robust z-score: higher = more nuclear NF-kappaB p65 after LPS than the plate median; nuclear/cytoplasmic p65 ratio: higher = more nuclear NF-kappaB p65. Active means: 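Called active when z exceeds 3.3 or falls under -1.56 (median of Tlr4 controls), giving activity score of at least 50; no calls for control wells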. Meaning of the calls: active = hit (p65 shift raised or lowered); inactive = no clear change.
The whole screen tested about 17,000 reagents; this is a part drawn at random. 762 of all reagents (4.5%) count as active. 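Active calls include both raised and lowered p65 entry, mostly lowered; wells with fewer than 50 cells lack a z-score.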 Raw values are not corrected between plates.

gene knocked down | p65 translocation robust z-score | nuclear/cytoplasmic p65 ratio, rep 1 | nuclear/cytoplasmic p65 ratio, rep 2 | low cell count flag | Call
Pclo (GeneID 26875) | -1.55 | 1.23 | 1.12 | enough cells to score | inactive
Fap (GeneID 14089) | -0.6 | 1.39 | 1.49 | enough cells to score | inactive
Nkd2 (GeneID 72293) | 1.36 | 1.89 | 1.76 | enough cells to score | inactive
Tac2 (GeneID 21334) | -0.45 | 1.45 | 1.35 | enough cells to score | inactive
Klrc3 (GeneID 58179) | 2.21 | 1.93 | 1.67 | enough cells to score | inactive
Or1o1 (GeneID 258504) | -0.89 | 1.45 | 1.51 | enough cells to score | inactive
Ndufa10 (GeneID 67273) | -0.61 | 1.67 | 1.52 | enough cells to score | inactive
Nfkb2 (GeneID 18034) | 1.83 | 1.64 | 1.7 | enough cells to score | inactive
Edc3 (GeneID 353190) | – | 1.12 | 1.27 | fewer than 50 cells per well; well left out of scoring | inactive
Srd5a2 (GeneID 94224) | 1.11 | 1.62 | 1.8 | enough cells to score | inactive
Cd302 (GeneID 66205) | -0.46 | 1.5 | 1.59 | enough cells to score | inactive
Asb7 (GeneID 117589) | -1.8 | 1.22 | 1.37 | enough cells to score | active
Mnmip1 (GeneID 66938) | 1.65 | 1.57 | 1.67 | enough cells to score | inactive
Rxfp2 (GeneID 140498) | -0.25 | 1.47 | 1.54 | enough cells to score | inactive
Cux1 (GeneID 13047) | 0.52 | 1.56 | 1.44 | enough cells to score | inactive
L1cam (GeneID 16728) | -0.68 | 1.37 | 1.29 | enough cells to score | inactive

Continued, starting with the last 2 of the part before.
gene knocked down | p65 translocation robust z-score | nuclear/cytoplasmic p65 ratio, rep 1 | nuclear/cytoplasmic p65 ratio, rep 2 | low cell count flag | Call
Cux1 (GeneID 13047) | 0.52 | 1.56 | 1.44 | enough cells to score | inactive
L1cam (GeneID 16728) | -0.68 | 1.37 | 1.29 | enough cells to score | inactive
Gstp1 (GeneID 14870) | -0.17 | 1.27 | 1.49 | enough cells to score | inactive
Fut8 (GeneID 53618) | 0.36 | 1.45 | 1.45 | enough cells to score | inactive
Xk (GeneID 22439) | 0.56 | 1.66 | 1.52 | enough cells to score | inactive
Asic2 (GeneID 11418) | -0.73 | 1.52 | 1.55 | enough cells to score | inactive
Trmt9b (GeneID 319582) | 3.95 | 1.93 | 2.13 | enough cells to score | active
Fam91a1 (GeneID 210998) | -0.03 | 1.55 | 1.86 | enough cells to score | inactive
Spag9 (GeneID 70834) | -1.22 | 1.32 | 1.43 | enough cells to score | inactive
Canx (GeneID 12330) | 0.32 | 1.62 | 1.7 | enough cells to score | inactive
Bet1l (GeneID 54399) | – | 1.13 | 1.3 | fewer than 50 cells per well; well left out of scoring | inactive
H2bc26 (GeneID 382522) | 2.58 | 1.57 | 1.92 | enough cells to score | inactive
Tmem59 (GeneID 56374) | – | 1.15 | 1.16 | fewer than 50 cells per well; well left out of scoring | inactive
Zfp521 (GeneID 225207) | 0.54 | 1.45 | 1.35 | enough cells to score | inactive
Pcdhga9 (GeneID 93717) | – | 1.32 | 1.12 | fewer than 50 cells per well; well left out of scoring | inactive
Trp53bp2 (GeneID 209456) | -0.53 | 1.47 | 1.4 | enough cells to score | inactive
Eppk1 (GeneID 223650) | -0.74 | 1.47 | 1.38 | enough cells to score | inactive
Ihh (GeneID 16147) | 0.85 | 1.48 | 1.55 | enough cells to score | inactive
Polm (GeneID 54125) | – | 1.31 | 1.2 | fewer than 50 cells per well; well left out of scoring | inactive
Rgs10 (GeneID 67865) | 1.52 | 1.67 | 1.35 | enough cells to score | inactive
Prl7a2 (GeneID 19114) | -0.59 | 1.34 | 1.12 | enough cells to score | inactive
Clip4 (GeneID 78785) | 1.01 | 1.52 | 1.56 | enough cells to score | inactive
Gm9871 (GeneID 207157) | 0.66 | 1.6 | 1.45 | enough cells to score | inactive
Tex261 (GeneID 21766) | 0.79 | 1.48 | 1.27 | enough cells to score | inactive
Lhx4 (GeneID 16872) | 2.25 | 2.02 | 1.92 | enough cells to score | inactive
Thnsl1 (GeneID 208967) | 0.79 | 1.81 | 1.45 | enough cells to score | inactive
